Results taken from publication PMC5805733.
No constants are given. Whether binding was seen depends on the method and setting. For some assays here: In cells and extracts the contact can be indirect. Some binding calls cover weakened binding; strength is not graded here. For some assays here: Tags and fused reporters may be left off the sequences shown.

B1: PilO_(Δ109) (core region of PilO) as T18 and T25 fusions (domain or fragment, UniProt G3XD51 110-207)
chain: PGLLEDITRTGLGSGLEFEEIKLLPEVAQQFYIELPIQISVVGGYHDLATFVSGVSSLPRIVTLHDFEIKPVAPGSTSKLRMSILAKTYRYNDKGLKK

Legend:
[1] = target: PilPΔ18 with an N-terminal 6-His tag (PilP_(Δ18_His)) (Pseudomonas aeruginosa) (UniProt G3XCX7); assay: pull-down; Ni-NTA (His-Trap FF) capture of His-tagged PilPΔ18 from the lysate of combined E. coli pellets; 20 mM HEPES pH 7.5, 500 mM KCl, 10% glycerol, imidazole gradient; eluate read by SDS-PAGE with Coomassie or Western blot
[2] = target: PilO_(Δ109) (core region of PilO) as T18 and T25 fusions (Pseudomonas aeruginosa) (UniProt G3XD51); assay: two-hybrid; bacterial two-hybrid (adenylate cyclase T18/T25) in E. coli BTH101; spotted on MacConkey agar with 1% maltose, 48 h at 30 °C

Molecule	binding [1]	binding [2]
PilNΔ44/PilOΔ51 (untagged, co-expressed soluble periplasmic fragments of PilN and PilO) (from UniProt G3XD30 45-198; G3XD51 52-207) (complex)	binds	–
B1	–	binds
